Data: patent CN113939539A
These are yes or no findings as the source states them, for the method shown. Some binding calls cover weakened binding; strength is not graded here.

Target: 猴CSF-1R-his蛋白 (Acro biosystems, Cat#CSR-C52E1) (monkey (cynomolgus))
Experiment: SPR (Biacore), antibody captured by anti-human IgG on CM5, monkey CSF-1R-his in solution

B1: 卡比利珠单抗 (antibody, human IgG4 S228P, kappa, V domains shown)
VH: QVQLVQSGAEVKKPGSSVKVSCKASGYTFTDNYMIWVRQAPGQGLEWMGDINPYNGGTTFNQKFKGRVTITADKSTSTAYMELSSLRSEDTAVYYCARESPYFSNLYVMDYWGQGTLVTVSS
VL: NIVLTQSPATLSLSPGERATLSCKASQSVDYDGDNYMNWYQQKPGQAPRLLIYAASNLESGIPARFSGSGSGTDFTLTISSLEPEDFAVYYCHLSNEDLSTFGGGTKVEIKR
B1 was tested, and the binding was “binds”.
